Test results as given in paper PMC11303697.
No constants are given. Whether binding was seen depends on the method and setting. Binding seen in cells or lysates may run through a third protein. Some entries that bind do so weakly or less than the wild type. For some assays here: Sequences can lack the tags named with a protein.

Chains of the proteins cited; added tags and fusions are not shown.
UniProt Q04206: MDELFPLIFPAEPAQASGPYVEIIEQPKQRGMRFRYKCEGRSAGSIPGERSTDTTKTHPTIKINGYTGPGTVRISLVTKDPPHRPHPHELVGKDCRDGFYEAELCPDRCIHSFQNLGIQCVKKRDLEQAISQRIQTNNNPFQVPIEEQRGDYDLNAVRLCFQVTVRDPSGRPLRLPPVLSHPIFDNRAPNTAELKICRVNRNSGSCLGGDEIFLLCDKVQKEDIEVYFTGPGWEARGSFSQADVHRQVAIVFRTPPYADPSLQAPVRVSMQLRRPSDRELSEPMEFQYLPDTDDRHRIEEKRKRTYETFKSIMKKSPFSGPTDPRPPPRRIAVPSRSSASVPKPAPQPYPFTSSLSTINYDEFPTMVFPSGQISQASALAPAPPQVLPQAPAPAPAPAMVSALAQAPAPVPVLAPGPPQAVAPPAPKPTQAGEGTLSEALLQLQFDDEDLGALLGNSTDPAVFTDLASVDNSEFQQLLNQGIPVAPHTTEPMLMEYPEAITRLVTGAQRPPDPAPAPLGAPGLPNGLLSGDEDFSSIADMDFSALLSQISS

Experiments:
BTG3 = target: T1, BTG3 (UniProt Q14201); assay: co-IP; p65 and BTG3 overexpressed in 293T cells; lysates in TEGN buffer diluted with TEG buffer; anti-Flag (M2) or anti-HA antibody and protein A resin, 2 h at 4 °C
T1 sequence: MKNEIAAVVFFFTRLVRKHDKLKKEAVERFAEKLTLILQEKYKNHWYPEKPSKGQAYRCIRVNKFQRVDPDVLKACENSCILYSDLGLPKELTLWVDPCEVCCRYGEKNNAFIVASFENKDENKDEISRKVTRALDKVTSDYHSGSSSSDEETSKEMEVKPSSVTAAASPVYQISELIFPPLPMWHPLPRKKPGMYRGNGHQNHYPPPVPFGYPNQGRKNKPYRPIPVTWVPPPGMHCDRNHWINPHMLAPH

GST-BTG3 = target: T2, GST-BTG3 (UniProt Q14201); assay: pull-down; GST pulldown 'in vitro' with recombinant GST-BTG3 proteins; conditions not given
T2 sequence: T1 sequence

Row | Substance | binding (BTG3) | binding (GST-BTG3)
1 | p65 (from UniProt Q04206 1-551) | binds | –
2 | p65 (as used in the GST pulldown) (from UniProt Q04206 1-551) | – | binds
